Results taken from PMC9265697.
These are yes or no findings as the source states them, for the method shown. In cells and extracts the contact can be indirect. These calls come from enrichment with a bait or labelling near it, and not all partners need be listed.

Amino acid sequences for entries named in this document (tags omitted).
UniProt Q64727: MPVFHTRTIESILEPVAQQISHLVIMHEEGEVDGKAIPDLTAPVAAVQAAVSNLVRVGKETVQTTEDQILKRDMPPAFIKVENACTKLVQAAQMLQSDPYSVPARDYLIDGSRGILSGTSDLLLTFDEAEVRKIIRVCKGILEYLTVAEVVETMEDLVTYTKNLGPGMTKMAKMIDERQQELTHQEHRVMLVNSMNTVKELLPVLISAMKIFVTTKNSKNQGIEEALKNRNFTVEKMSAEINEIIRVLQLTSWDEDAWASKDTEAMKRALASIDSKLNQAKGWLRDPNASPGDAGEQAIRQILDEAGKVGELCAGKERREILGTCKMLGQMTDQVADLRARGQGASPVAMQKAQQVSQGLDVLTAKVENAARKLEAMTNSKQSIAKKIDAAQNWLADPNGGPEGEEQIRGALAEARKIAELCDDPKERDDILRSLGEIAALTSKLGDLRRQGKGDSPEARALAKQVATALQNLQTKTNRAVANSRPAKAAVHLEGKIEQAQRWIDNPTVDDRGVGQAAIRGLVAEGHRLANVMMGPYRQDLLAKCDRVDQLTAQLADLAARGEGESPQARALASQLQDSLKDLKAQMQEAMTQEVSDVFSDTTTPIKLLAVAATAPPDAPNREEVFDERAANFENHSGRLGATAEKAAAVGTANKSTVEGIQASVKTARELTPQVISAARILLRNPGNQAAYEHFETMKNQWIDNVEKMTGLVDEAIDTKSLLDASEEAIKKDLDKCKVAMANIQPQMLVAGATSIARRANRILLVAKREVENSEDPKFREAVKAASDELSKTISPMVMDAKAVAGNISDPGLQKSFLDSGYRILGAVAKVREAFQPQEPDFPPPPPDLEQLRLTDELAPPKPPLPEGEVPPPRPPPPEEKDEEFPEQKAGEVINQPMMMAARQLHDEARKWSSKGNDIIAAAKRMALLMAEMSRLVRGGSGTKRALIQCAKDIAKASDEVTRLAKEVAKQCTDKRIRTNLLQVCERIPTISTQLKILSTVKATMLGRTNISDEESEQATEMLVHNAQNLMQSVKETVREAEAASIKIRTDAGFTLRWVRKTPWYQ
UniProt Q91YR1: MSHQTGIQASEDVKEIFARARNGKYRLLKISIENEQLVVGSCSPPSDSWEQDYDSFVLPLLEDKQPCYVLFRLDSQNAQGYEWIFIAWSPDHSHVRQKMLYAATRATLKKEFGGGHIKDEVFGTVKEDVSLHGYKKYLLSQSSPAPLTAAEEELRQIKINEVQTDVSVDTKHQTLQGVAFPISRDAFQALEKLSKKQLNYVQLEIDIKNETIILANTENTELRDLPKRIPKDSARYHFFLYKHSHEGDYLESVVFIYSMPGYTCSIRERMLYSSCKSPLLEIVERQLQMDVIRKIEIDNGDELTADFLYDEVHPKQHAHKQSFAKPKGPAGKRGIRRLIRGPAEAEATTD
UniProt O88685: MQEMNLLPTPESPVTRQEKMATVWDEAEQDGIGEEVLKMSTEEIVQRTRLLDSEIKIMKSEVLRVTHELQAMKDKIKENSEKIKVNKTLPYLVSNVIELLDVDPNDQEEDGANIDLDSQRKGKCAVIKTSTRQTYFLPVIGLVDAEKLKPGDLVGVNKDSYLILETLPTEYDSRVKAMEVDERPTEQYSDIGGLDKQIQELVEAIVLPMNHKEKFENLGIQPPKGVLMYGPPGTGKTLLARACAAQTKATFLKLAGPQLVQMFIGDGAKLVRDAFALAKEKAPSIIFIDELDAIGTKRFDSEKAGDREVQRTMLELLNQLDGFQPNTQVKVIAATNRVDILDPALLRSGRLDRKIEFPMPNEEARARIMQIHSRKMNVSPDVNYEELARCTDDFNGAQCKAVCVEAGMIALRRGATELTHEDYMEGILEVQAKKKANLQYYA
UniProt Q9WUP7: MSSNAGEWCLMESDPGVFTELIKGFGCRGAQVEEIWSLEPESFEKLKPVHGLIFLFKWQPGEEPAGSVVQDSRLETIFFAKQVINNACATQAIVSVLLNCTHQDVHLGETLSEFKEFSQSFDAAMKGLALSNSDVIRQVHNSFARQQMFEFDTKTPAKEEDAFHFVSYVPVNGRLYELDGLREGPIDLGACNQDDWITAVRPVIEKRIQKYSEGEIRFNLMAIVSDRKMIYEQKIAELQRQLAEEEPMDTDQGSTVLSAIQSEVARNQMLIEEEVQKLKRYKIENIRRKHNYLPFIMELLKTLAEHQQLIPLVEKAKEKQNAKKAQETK
UniProt P62334: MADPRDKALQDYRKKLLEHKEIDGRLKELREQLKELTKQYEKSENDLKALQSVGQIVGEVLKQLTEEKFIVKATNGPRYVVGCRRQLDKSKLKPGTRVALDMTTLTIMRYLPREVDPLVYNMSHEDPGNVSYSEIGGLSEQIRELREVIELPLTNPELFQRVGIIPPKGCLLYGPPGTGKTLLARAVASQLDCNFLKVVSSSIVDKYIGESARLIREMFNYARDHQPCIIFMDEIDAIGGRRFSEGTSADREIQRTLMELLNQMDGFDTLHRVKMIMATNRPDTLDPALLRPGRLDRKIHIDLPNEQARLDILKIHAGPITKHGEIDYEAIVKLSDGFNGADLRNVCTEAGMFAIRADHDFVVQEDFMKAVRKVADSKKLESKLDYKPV

What follows are substances tested against Vinculin (mouse (endogenous in testicular cells and primary spermatocytes)) (UniProt Q64727) (assay: affinity purification with mass spectrometry; co-IP of endogenous VCL with polyclonal anti-Vinculin antibody (ab91459) and Protein A Dynabeads, overnight at 4 °C, from whole-cell/cytoplasmic (Cl) and nuclear (Nu) extracts of mouse testicular single-cell suspension and FACS-sorted primary (pachytene) spermatocytes; rabbit IgG isotype control; on-bead trypsin digest, nLC-MS2, label-free quantification).

binding, binds:
Twinfilin-1 (from UniProt Q91YR1 1-350)
Psmc3 (from UniProt O88685 1-442)
ubiquitin carboxy-terminal hydrolase type 5 (from UniProt Q9WUP7 1-329)
Psmc6 (from UniProt P62334 1-389)
